# Assay results taken from article PMC12170880.
# The chains behind the UniProt entries cited, without tags or fusion partners. Where a name states a change or a piece, a line headed by the entry shows the natural chain unless it says otherwise.
# UniProt F4KB26: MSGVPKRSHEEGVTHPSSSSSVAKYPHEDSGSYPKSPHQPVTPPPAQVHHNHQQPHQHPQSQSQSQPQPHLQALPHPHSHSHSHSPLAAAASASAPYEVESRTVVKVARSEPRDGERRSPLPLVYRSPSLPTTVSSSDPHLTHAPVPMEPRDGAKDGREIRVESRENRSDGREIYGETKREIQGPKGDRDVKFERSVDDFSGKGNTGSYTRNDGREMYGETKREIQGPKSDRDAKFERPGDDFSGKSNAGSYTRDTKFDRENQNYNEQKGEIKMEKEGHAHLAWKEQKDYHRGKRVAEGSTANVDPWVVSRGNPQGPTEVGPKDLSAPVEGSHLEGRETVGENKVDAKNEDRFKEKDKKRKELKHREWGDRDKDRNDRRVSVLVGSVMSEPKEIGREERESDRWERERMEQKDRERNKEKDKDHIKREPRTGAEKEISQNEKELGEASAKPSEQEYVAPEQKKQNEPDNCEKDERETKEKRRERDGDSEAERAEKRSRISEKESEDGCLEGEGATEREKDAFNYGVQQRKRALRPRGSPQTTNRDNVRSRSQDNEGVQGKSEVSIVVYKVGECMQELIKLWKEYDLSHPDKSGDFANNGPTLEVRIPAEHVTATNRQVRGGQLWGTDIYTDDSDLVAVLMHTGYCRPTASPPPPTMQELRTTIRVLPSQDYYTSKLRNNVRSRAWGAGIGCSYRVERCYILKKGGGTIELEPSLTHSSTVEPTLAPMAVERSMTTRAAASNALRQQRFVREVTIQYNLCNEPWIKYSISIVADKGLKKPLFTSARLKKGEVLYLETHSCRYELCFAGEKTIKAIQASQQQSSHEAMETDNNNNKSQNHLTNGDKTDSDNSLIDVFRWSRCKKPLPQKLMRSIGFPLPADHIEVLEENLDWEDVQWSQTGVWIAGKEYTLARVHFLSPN
# UniProt O22467: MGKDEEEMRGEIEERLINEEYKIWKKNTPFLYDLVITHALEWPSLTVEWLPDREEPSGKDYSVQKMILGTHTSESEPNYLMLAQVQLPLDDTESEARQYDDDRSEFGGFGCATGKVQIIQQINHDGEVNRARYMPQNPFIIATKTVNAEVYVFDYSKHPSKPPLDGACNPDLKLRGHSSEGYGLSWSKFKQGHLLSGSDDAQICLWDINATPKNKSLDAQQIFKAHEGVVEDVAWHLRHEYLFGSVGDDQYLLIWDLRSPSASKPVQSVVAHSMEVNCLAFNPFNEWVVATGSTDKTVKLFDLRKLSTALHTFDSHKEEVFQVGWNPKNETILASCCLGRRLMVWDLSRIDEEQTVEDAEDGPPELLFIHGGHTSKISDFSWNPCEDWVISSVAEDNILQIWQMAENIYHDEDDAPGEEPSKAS
# UniProt O48686: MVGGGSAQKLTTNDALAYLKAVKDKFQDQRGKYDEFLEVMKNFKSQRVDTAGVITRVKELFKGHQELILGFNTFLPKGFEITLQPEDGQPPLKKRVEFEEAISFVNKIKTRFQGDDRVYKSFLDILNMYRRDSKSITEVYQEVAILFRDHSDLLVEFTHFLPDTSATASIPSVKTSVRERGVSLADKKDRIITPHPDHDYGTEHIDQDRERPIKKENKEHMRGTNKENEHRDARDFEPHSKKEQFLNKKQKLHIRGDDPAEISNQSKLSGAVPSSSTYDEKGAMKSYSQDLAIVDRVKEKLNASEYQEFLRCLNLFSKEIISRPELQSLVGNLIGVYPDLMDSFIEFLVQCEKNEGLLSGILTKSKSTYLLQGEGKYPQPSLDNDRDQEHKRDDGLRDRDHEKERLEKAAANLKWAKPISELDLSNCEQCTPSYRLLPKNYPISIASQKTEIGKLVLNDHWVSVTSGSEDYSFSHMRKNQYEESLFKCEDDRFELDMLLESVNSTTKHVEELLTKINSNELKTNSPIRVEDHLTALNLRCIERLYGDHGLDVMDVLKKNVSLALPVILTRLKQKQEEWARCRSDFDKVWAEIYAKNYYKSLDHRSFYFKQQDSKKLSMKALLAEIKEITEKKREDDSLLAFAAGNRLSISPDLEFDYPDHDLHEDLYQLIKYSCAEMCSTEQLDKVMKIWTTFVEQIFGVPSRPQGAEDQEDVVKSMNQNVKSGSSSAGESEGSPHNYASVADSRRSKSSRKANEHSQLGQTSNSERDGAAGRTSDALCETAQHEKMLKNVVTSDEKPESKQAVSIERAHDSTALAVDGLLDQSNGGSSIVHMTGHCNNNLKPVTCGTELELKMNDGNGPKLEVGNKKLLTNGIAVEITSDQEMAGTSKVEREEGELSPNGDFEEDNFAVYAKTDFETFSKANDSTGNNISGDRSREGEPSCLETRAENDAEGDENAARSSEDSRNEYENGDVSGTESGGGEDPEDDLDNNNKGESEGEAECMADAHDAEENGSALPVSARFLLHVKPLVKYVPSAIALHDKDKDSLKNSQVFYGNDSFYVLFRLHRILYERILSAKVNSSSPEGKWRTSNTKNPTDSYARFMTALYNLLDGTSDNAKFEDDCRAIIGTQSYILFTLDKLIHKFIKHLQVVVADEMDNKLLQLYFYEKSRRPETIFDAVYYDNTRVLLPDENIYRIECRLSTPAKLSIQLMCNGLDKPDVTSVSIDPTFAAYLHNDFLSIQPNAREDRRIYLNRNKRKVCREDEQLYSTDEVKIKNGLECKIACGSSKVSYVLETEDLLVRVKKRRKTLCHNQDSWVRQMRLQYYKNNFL
# UniProt O04539: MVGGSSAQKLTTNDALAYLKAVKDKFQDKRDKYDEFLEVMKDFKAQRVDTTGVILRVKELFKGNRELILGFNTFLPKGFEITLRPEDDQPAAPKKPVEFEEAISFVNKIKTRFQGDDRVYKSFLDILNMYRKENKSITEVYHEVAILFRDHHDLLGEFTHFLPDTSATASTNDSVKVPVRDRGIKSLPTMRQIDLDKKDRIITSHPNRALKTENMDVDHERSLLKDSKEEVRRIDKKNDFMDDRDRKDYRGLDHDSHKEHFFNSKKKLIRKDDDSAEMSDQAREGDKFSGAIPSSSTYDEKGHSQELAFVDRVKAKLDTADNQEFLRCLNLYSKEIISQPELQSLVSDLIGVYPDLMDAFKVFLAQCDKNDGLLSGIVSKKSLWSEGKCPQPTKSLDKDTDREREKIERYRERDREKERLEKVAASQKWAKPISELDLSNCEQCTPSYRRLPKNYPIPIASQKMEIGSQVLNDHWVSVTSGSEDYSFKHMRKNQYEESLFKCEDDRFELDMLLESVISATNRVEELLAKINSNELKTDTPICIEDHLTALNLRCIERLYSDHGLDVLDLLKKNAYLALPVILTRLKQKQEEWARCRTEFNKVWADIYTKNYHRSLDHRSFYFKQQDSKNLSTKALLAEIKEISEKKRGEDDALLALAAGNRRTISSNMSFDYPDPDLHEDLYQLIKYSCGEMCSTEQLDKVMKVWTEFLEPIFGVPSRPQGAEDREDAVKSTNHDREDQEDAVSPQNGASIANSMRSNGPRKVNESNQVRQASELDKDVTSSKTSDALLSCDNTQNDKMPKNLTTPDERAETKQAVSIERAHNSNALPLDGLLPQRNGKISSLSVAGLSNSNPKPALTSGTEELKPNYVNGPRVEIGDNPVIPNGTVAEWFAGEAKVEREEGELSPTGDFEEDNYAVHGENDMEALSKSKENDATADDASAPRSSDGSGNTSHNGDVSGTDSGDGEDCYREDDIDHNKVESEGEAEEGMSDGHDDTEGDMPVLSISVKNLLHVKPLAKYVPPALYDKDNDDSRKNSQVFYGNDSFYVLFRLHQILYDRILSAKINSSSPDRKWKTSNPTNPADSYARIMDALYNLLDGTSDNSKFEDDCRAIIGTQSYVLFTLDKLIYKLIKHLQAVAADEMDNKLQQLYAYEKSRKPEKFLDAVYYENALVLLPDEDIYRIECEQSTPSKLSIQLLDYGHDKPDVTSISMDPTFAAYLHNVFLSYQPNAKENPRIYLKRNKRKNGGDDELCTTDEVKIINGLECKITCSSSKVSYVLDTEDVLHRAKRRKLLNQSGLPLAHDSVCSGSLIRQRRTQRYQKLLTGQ
# UniProt Q9XIE1: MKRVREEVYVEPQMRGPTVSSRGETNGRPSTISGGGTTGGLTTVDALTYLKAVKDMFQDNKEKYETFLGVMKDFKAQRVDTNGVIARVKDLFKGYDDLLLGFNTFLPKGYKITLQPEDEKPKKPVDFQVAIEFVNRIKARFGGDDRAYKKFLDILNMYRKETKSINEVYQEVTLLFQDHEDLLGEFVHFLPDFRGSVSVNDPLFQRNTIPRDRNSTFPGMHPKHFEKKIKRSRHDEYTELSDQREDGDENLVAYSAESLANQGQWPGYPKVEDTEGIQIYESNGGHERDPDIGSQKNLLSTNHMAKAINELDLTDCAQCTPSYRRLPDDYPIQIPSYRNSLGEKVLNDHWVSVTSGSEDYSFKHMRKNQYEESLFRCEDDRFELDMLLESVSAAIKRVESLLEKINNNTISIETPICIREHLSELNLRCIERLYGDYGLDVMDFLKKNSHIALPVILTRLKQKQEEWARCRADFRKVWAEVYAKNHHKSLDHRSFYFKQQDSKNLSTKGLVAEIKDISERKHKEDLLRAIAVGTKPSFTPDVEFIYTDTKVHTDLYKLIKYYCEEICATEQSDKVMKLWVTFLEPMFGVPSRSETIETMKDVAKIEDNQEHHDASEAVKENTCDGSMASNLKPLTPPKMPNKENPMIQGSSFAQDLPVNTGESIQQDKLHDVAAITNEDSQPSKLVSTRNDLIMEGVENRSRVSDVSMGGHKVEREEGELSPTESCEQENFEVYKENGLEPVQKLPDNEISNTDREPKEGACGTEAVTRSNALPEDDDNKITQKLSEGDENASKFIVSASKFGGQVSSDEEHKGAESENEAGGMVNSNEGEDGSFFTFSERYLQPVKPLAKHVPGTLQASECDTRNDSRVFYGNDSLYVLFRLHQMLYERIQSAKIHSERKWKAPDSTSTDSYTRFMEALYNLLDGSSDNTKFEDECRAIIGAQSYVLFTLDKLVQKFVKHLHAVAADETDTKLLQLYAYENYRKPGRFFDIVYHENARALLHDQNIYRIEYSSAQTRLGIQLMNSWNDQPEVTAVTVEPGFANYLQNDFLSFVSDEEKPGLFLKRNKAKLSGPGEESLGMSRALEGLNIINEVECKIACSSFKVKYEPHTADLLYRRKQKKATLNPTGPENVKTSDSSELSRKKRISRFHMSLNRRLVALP
# UniProt Q9XIK6: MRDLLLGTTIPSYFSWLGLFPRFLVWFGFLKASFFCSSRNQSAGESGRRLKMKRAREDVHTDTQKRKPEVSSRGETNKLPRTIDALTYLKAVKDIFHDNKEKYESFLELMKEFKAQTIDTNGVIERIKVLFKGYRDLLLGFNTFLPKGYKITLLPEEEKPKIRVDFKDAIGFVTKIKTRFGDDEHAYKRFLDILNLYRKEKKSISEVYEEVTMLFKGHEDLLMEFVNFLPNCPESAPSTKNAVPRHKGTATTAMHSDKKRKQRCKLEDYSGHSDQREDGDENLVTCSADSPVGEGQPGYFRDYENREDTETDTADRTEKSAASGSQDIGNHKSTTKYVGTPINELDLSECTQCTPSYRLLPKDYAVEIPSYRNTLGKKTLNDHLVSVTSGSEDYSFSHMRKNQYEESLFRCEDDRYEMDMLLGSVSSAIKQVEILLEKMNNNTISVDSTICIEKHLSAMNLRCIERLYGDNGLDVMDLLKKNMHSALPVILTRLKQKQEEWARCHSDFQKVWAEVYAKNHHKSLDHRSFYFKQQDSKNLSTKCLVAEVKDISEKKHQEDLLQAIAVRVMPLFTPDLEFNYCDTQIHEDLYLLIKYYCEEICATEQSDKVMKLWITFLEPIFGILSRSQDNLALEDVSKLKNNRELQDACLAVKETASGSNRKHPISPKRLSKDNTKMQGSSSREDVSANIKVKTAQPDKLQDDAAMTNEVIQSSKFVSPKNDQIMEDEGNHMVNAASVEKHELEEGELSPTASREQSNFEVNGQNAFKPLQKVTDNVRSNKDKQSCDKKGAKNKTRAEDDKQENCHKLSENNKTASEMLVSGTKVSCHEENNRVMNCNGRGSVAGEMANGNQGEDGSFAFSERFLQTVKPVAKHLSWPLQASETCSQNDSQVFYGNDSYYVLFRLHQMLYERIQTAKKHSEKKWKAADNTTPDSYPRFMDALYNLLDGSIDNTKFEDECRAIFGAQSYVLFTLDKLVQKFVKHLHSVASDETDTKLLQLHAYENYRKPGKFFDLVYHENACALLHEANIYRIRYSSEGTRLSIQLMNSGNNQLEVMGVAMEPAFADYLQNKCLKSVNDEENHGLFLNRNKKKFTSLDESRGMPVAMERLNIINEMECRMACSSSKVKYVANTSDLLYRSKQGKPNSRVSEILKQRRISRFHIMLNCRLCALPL
# No constants are given. Whether binding was seen depends on the method and setting. Binding seen in cells or lysates may run through a third protein. Here binding means that the protein was enriched with, or labelled near, the bait; the list need not be complete. For part of these data: No binding means not detected with the bait. For part of these data: Sequences can lack the tags named with a protein.
# T1: RPD3-type histone deacetylase HDA19 (Arabidopsis thaliana) (UniProt O22446)
# T1 sequence: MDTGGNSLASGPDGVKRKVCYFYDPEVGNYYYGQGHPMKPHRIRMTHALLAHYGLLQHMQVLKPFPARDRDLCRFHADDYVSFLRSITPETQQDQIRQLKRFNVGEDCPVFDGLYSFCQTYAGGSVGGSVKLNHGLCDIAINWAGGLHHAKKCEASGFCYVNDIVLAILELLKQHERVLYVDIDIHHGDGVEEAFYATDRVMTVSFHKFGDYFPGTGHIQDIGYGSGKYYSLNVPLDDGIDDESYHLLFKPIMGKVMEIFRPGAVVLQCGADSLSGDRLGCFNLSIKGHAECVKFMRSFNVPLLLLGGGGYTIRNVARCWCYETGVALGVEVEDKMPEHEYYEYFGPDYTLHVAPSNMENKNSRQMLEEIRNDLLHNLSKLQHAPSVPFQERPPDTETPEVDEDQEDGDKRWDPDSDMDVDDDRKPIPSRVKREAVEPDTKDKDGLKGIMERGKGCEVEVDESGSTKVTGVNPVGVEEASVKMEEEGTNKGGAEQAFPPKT
# T2: RPD3-type histone deacetylase HDA6 (Arabidopsis thaliana) (UniProt Q9FML2)
# T2 sequence: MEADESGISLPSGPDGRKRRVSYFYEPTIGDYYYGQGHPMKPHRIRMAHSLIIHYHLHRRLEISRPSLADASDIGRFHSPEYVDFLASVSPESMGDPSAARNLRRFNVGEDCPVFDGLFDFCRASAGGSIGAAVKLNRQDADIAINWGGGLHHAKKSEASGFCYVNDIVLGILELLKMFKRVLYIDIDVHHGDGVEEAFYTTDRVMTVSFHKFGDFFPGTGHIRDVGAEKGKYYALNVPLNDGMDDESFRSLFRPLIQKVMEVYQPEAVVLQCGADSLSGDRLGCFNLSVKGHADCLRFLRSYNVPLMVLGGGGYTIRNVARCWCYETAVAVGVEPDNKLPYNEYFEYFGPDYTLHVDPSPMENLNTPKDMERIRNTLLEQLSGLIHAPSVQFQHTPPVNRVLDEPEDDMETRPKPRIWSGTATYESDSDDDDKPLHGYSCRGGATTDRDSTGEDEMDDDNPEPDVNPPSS
# B1: RPD3-type histone deacetylase HDA19 (enzyme, UniProt O22446 1-501)
# chain: T1 sequence
# Legend:
# Assay in all cases: affinity purification with mass spectrometry; lysate of seedlings and inflorescences of transgenic Arabidopsis expressing the tagged bait; 50 mM Tris-HCl pH 7.5, 150 mM NaCl, 5 mM MgCl2, 10% glycerol, 0.1% NP-40; anti-Flag M2 agarose 2.5 h at 4 °C, five washes, elution with 3×Flag peptide, gel bands analysed by mass spectrometry
# [1] = target: HDC1 (Arabidopsis thaliana) (UniProt F4KB26)
# [2] = target: MSI1 (Arabidopsis thaliana) (UniProt O22467)
# [3] = target: T1, RPD3-type histone deacetylase HDA19 (Arabidopsis thaliana)
# [4] = target: T2, RPD3-type histone deacetylase HDA6 (Arabidopsis thaliana)
# [5] = target: SIN3-like protein SNL3 (Arabidopsis thaliana) (UniProt O48686)
# [6] = target: SIN3-like protein SNL4 (Arabidopsis thaliana) (UniProt O04539)
# [7] = target: SIN3-like protein SNL5 (Arabidopsis thaliana) (UniProt Q9XIE1)
# [8] = target: SIN3-like protein SNL6 (Arabidopsis thaliana) (UniProt Q9XIK6)
# [9] = target: HDA19-interacting protein 1 (HDIP1) (Arabidopsis thaliana) (UniProt F4I0M4)
# [10] = target: HDA19-interacting protein 2 (HDIP2) (Arabidopsis thaliana) (UniProt Q9FZE6)
# [11] = target: HDA19-interacting protein 3 (HDIP3) (Arabidopsis thaliana) (UniProt Q9LMG4)
Molecule,binding [1],binding [2],binding [3],binding [4],binding [5],binding [6],binding [7],binding [8],binding [9],binding [10],binding [11]
HDA19-interacting protein 2 (HDIP2) (from UniProt Q9FZE6),binds,binds,binds,no binding,binds,binds,binds,binds,,,
SIN3-like protein SNL5 (from UniProt Q9XIE1 1-1162),,,,,,,,,binds,binds,binds
HDA19-interacting protein 3 (HDIP3) (from UniProt Q9LMG4),binds,binds,binds,no binding,binds,binds,binds,binds,,,
MSI1 (from UniProt O22467 1-424),,,,,,,,,binds,binds,binds
SIN3-like protein SNL4 (from UniProt O04539 1-1326),,,,,,,,,binds,binds,binds
SIN3-like protein SNL6 (from UniProt Q9XIK6 1-1173),,,,,,,,,binds,binds,binds
SIN3-like protein SNL3 (from UniProt O48686 1-1330),,,,,,,,,binds,binds,binds
HDC1 (from UniProt F4KB26),,,,,,,,,binds,binds,binds
HDA19-interacting protein 1 (HDIP1) (from UniProt F4I0M4),binds,binds,binds,no binding,binds,binds,binds,binds,,,
B1,,,,,,,,,binds,binds,binds
